The values that follow come from paper PMC7743899.

For one experiment, the target named is FLAG-tagged SLY (mouse). The experiment can be described thus: co-IP; FLAG antibody magnetic beads incubated with FLAG-SLY transgenic testis lysate for 2 h at 4 °C, washed with TBS-0.5% Tween, eluted with 0.1 M glycine/HCl pH 3.0; Western blot. (A western blot detects proteins with antibodies after separation by electrophoresis.)
Experiment [1] deals with SLY (Sycp3-like Y-linked) protein (mouse (endogenous in testis)). The experiment can be described thus: co-IP; antibody (SLY, SLX/SLXL1, SPIN1 or TBL1XR1) cross-linked to protein A/G-coated beads, incubated with whole-testis extracts (WT or Sly-KD) for 1 h, washed in PBS pH 7.5 with 0.65% Tween, eluted with 0.1 M glycine/HCl pH 3.0; Western blot; IgG as negative control.

Results are given in words; binding and its absence hold for the method and conditions named. In cells and extracts the contact can be indirect. Binding calls can cover weak binding; strength is not graded here.

B1: TBL1X (Transducin Beta Like 1 X-Linked) (protein, UniProt Q9QXE7 1-527)
chain: MSITSDEVNFLVYRYLQESGFSHSAFTFGIESHISQSNINGTLVPPAALISILQKGLQYVEAEISINEDGTVFDGRPIESLSLIDAVMPDVVQTRQQAFREKLAQQQANAAAAAAAAAATATSTAATTPAAAAQQNPPKNGEATVNGEENGAHAINNHSKPMEIDGDVEIPPSKATVLRGHESEVFICAWNPVSDLLASGSGDSTARIWNLNENSNGGSTQLVLRHCIREGGHDVPSNKDVTSLDWNSDGTLLATGSYDGFARIWTEDGNLASTLGQHKGPIFALKWNKKGNYILSAGVDKTTIIWDAHTGEAKQQFPFHSAPALDVDWQNNTTFASCSTDMCIHVCRLGCDRPVKTFQGHTNEVNAIKWDPSGMLLASCSDDMTLKIWSMKQDACVHDLQAHSKEIYTIKWSPTGPATSNPNSNIMLASASFDSTVRLWDVERGVCIHTLTKHQEPVYSVAFSPDGKYLASGSFDKCVHIWNTQSGSLVHSYRGTGGIFEVCWNARGDKVGASASDGSVCVLDLRK
Turning to B1, the binding entry (with FLAG-tagged SLY (mouse); in experiment [1]) was “binds” in each case.
